These are yes or no findings as the source states them, for the method shown. In cells and extracts the contact can be indirect. Some results given as binding are weak or reduced against the parent protein; the word gives no strength. Tags and fused reporters may be left off the sequences shown.
T1: 3xFlag-GNB1L (human) (UniProt Q9BYB4)
T1 sequence: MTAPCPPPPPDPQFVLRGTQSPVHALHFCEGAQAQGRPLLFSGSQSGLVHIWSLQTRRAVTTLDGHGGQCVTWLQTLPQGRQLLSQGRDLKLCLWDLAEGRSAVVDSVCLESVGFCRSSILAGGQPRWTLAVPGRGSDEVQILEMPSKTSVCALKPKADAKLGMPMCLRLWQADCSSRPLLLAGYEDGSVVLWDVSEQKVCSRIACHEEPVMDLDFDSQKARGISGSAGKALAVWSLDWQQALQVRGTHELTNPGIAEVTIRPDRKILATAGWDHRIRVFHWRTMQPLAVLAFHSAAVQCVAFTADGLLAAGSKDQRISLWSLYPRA

The chains behind the UniProt entries cited, without tags or fusion partners.
UniProt P78527: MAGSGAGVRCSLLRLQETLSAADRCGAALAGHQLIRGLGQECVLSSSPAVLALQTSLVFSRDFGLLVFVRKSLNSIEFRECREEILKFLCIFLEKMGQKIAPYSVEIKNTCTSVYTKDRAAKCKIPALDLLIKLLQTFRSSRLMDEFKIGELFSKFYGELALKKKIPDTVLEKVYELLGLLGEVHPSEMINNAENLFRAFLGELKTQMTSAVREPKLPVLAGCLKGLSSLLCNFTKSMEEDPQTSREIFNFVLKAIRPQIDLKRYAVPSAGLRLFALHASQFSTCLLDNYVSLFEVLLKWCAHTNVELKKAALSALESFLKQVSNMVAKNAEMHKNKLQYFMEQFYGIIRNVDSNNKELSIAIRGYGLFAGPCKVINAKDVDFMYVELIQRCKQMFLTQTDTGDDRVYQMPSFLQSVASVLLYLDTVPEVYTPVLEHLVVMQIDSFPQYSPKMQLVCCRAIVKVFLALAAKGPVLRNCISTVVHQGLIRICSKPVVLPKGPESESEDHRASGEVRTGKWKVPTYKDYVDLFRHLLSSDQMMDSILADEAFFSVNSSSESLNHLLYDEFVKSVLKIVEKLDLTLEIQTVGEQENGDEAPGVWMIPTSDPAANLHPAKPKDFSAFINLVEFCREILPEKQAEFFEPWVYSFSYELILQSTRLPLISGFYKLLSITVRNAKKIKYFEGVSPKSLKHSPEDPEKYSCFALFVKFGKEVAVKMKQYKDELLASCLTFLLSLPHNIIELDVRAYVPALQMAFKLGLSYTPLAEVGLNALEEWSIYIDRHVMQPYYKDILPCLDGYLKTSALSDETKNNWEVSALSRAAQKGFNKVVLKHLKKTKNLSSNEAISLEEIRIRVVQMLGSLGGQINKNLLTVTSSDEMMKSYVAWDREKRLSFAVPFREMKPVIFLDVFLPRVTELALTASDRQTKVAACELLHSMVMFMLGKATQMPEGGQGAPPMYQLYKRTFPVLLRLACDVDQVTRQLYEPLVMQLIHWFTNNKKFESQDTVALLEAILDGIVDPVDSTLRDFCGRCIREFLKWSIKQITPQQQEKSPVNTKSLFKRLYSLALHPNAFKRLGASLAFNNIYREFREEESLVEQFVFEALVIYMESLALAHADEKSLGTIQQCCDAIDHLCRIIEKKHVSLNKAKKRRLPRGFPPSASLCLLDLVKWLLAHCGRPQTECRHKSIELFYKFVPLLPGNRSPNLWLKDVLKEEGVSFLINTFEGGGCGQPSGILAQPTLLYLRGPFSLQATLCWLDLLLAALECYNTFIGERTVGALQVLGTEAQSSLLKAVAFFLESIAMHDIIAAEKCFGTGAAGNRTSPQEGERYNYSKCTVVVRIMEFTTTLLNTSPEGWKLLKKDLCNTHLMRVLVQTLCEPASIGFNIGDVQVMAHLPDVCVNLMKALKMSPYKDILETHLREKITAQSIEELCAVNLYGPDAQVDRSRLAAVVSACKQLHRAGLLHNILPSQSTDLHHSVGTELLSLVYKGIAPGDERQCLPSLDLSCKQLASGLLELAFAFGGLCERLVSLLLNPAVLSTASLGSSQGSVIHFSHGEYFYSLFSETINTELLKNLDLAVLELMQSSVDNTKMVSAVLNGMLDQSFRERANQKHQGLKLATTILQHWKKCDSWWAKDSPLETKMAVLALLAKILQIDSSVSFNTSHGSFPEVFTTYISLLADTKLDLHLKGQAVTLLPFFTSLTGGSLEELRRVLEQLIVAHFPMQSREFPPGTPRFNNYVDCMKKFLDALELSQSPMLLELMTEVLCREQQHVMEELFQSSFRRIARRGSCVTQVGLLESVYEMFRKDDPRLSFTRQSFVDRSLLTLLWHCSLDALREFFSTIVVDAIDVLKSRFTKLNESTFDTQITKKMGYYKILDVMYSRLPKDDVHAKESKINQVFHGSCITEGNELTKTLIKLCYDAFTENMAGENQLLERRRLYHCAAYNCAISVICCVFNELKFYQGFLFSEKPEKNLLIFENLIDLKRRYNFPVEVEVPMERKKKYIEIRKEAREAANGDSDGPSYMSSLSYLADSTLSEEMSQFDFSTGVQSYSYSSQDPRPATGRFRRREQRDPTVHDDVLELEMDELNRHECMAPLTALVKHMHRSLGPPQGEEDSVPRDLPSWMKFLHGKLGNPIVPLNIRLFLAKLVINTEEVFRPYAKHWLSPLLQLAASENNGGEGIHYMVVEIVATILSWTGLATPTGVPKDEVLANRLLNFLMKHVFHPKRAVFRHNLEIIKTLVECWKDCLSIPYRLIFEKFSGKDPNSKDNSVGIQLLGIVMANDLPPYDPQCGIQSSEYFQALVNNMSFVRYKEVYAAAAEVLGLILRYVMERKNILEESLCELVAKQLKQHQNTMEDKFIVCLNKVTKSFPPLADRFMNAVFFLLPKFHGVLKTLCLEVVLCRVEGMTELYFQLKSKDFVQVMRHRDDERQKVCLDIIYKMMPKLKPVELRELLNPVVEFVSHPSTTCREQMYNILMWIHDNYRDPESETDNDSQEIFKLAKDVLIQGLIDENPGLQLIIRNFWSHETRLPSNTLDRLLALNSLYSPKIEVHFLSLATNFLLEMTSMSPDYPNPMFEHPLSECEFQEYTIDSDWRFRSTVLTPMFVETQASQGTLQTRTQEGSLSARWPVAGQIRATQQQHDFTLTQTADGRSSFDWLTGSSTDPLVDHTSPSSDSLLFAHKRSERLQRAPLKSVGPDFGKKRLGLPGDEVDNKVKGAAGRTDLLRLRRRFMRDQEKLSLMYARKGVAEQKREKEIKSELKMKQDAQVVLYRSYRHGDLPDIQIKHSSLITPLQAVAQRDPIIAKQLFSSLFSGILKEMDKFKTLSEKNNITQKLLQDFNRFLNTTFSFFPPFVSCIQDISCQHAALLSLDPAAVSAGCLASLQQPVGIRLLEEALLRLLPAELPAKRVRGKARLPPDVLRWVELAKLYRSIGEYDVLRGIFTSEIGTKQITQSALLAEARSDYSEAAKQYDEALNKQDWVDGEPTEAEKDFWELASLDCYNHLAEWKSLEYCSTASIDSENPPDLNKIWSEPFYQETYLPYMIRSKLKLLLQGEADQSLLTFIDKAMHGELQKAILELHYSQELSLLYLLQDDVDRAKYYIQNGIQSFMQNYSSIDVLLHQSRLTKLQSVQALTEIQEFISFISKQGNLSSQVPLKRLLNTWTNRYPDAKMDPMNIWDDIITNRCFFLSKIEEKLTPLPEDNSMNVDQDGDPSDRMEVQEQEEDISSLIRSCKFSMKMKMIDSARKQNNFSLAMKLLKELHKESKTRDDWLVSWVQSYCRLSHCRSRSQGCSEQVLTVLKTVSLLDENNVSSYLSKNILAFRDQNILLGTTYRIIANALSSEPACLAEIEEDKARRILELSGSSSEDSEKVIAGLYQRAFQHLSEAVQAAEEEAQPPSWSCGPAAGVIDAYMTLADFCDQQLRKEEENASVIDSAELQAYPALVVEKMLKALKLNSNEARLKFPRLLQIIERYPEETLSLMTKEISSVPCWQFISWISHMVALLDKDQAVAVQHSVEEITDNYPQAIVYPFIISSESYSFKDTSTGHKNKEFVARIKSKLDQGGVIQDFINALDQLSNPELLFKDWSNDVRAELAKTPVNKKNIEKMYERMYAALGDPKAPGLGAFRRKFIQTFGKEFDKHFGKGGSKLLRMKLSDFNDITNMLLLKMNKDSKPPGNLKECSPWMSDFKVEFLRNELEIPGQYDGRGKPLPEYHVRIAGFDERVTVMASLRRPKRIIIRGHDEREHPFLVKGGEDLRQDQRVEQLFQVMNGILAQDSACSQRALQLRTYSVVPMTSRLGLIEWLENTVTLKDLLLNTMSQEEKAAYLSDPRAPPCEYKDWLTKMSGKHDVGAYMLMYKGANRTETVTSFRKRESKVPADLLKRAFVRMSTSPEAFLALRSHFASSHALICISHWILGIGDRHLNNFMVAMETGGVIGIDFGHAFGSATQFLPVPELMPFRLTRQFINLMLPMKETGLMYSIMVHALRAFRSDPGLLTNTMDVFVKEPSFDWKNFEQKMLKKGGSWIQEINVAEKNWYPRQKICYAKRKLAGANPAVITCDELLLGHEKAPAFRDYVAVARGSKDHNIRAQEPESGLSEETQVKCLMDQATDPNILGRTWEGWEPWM
UniProt O43156: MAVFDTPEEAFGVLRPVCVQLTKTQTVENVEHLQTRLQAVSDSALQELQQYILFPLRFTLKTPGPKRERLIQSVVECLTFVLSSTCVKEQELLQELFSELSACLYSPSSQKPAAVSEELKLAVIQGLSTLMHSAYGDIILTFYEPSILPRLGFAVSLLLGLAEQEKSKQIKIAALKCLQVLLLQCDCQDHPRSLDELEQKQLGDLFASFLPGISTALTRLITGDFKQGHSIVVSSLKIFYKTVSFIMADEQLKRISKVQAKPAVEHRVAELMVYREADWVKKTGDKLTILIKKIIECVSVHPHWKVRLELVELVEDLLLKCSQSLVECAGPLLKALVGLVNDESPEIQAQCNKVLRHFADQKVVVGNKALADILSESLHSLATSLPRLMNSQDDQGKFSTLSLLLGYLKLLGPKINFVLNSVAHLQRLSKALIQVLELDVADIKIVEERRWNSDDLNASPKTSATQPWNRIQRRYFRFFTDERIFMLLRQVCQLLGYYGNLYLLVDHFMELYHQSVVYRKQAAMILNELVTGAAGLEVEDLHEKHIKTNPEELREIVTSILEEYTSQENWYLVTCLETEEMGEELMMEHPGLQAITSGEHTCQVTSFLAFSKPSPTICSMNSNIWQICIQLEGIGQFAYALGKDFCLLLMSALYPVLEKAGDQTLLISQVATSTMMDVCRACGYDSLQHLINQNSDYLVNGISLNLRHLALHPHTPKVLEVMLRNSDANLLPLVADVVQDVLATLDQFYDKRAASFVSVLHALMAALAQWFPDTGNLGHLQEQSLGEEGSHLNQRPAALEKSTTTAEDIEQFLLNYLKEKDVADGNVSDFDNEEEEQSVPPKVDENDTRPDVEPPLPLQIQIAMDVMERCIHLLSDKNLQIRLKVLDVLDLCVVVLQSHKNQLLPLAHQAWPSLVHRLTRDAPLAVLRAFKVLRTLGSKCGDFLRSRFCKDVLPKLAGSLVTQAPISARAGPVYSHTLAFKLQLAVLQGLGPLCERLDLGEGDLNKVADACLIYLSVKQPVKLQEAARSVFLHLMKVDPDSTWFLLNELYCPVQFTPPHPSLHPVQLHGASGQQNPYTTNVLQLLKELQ

B1: TTI2 (protein, UniProt Q6NXR4 1-508)
chain: MELDSALEAPSQEDSNLSEELSHSAFGQAFSKILHCLARPEARRGNVKDAVLKDLGDLIEATEFDRLFEGTGARLRGMPETLGQVAKALEKYAAPSKEEEGGGDGHSEAAEKAAQVGLLFLKLLGKVETAKNSLVGPAWQTGLHHLAGPVYIFAITHSLEQPWTTPRSREVAREVLTSLLQVTECGSVAGFLHGENEDEKGRLSVILGLLKPDLYKESWKNNPAIKHVFSWTLQQVTRPWLSQHLERVLPASLVISDDYQTENKILGVHCLHHIVLNVPAADLLQYNRAQVLYHAISNHLYTPEHHLIQAVLLCLLDLFPILEKTLHWKGDGARPTTHCDEVLRLILTHMEPEHRLLLRRTYARNLPAFVNRLGILTVRHLKRLERVIIGYLEVYDGPEEEARLKILETLKLLMQHTWPRVSCRLVVLLKALLKLICDVARDPNLTPESVKSALLQEATDCLILLDRCSQGRVKGLLAKIPQSCEDRKVVNYIRKVQQVSEGAPYNGT

What follows are molecules tested against T1, 3xFlag-GNB1L (human) (assay: co-IP).

binding, binds:
DNA-PKcs (from UniProt P78527 1-4128)
TRRAP (from UniProt Q9Y4A5 1-3859)
TTI1 (from UniProt O43156 1-1089)
ATR (from UniProt Q13535 1-2644)
B1

— paper doi:10.1101/2022.09.23.508845
